The supplement of paper PMC10849652
The list shows a part of the results. Residues, ends and D or L forms follow the SMILES beside them. *: point of attachment. Cbz = O=C(OCc1ccccc1)*

Chains of the proteins cited; added tags and fusions are not shown. Lines headed by an entry give the natural chain unless they say otherwise; changes in a name come on top.
UniProt Q15349, whole entry, looked up: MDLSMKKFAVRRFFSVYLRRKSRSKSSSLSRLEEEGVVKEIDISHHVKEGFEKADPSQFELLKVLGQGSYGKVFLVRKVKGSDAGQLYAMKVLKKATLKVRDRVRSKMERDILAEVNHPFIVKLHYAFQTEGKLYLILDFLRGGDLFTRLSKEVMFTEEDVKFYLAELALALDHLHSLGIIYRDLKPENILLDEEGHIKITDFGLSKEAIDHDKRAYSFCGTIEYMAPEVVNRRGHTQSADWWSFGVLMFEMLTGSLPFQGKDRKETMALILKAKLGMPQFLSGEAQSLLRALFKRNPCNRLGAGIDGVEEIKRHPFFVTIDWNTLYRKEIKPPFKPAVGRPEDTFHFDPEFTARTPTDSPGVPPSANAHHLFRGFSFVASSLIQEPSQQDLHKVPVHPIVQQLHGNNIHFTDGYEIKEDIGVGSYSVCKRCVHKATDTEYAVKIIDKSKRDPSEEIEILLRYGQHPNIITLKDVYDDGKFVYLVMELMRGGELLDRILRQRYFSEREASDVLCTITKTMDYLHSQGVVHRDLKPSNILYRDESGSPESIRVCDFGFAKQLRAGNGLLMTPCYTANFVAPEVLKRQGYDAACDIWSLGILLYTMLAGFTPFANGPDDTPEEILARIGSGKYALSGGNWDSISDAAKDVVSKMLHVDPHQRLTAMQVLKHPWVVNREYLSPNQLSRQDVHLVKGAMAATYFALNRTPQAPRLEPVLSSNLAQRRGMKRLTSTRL
UniProt P78346: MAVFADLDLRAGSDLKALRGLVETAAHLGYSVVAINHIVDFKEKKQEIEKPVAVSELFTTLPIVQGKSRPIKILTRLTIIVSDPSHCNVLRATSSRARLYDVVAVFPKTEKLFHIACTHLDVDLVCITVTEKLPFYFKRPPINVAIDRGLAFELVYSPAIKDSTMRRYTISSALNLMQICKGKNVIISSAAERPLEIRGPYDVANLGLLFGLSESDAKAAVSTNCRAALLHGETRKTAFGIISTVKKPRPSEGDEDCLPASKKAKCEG
UniProt Q8TA86: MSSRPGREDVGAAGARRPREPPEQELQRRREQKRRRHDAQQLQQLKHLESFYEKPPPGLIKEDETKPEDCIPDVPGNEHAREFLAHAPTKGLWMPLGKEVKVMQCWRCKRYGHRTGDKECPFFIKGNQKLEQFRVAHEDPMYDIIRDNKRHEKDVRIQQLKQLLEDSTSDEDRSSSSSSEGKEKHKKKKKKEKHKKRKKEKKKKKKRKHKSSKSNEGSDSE
UniProt P35244: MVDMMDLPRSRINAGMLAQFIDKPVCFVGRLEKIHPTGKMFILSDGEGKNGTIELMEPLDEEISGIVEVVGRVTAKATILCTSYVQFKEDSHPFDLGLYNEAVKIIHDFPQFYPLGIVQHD
UniProt Q01974, whole entry, looked up: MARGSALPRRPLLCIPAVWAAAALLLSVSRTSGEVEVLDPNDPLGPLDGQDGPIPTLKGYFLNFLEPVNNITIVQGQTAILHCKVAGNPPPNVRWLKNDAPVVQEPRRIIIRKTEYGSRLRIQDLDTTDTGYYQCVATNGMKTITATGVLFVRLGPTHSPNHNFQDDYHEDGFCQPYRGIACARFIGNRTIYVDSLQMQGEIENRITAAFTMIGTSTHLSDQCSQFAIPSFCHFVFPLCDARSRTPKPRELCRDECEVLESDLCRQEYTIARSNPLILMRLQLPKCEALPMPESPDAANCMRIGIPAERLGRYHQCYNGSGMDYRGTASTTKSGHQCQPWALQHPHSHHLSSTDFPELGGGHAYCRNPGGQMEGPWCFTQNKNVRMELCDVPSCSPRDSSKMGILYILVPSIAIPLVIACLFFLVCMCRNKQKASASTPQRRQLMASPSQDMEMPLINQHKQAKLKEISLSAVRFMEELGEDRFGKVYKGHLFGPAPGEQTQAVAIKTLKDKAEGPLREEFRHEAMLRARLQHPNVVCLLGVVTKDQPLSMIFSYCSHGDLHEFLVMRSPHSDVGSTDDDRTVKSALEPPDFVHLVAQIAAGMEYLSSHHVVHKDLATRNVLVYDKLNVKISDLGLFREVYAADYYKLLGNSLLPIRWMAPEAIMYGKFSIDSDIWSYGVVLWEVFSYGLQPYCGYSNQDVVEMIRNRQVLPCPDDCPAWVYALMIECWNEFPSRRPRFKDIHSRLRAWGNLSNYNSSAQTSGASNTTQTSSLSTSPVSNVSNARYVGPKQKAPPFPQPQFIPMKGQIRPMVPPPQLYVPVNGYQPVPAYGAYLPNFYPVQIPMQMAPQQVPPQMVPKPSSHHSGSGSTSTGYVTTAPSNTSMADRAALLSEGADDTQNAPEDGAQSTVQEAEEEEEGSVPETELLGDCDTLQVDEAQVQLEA

Columns and labels:
Assay in all cases: log2 fold change, soluble protein after heating vs DMSO (PISA); higher = thermal stabilisation; K562 cells, 10 uM, 30 min; active = over 0.2 and 3.5 SD of the protein, either way, in both replicates (recomputed)
[1] = compound: C#Cc1cccc(Nc2ncnc3cc(OCCOC)c(OCCOC)cc23)c1 [erlotinib]
Outline: (§1)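 Values are thermal stability changes relative to control samples and are taken from duplicates. They are stated as log2 fold changes. Before quantification by TMTpro 16plex LC-MS/MS with equalised channel sums, K562 cells at 2×10^6 cells/mL were treated with 10 μM compound for 30 min, heated in aliquots for 3 min across 48°C-58°C, pooled, extracted in PBS with 0.5% NP-40 at 4°C, and centrifuged at 21,000xg for 90 min to give the soluble supernatant.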

[2] = compound: C/C(=N\NC(=O)C1=CC(=CC=C1)S(=O)(=O)N2CCOCC2)/C3=C(C=CC(=C3)Cl)O
Outline: as §1

[3] = compound: C1=CC(=C(C=C1Cl)C2=NC3=NC=CN=C3C(=N2)NC4=CC=NC=C4)F
Outline: as §1

[4] = compound: C1=CC(=CC=C1C2=NC3=C(N2)C=C(C=C3)C(=O)N)OC4=CC=C(C=C4)Cl
Outline: as §1

[5] = compound: C1=CC2=C(C=CC(=C2)/C=C\3/C(=O)NC(=NCC4=CC=CS4)S3)N=C1
Outline: as §1

[6] = compound: C1=CC2=NC=CN=C2C=C1/C=C/3\C(=O)NC(=O)S3
Outline: as §1

[7] = compound: C1=CC=C(C=C1)C2=NC(=C(N2)C3=CC=NC=C3)C4=CC(=C(C=C4)Cl)O
Outline: as §1

[8] = compound: C1=CC=C2C(=C1)C3=NNC4=CC=CC(=C43)C2=O
Outline: as §1

[9] = compound: C1CCN(C1)C(=O)NC2=CC=CC(=C2)NC3=NC=C(C(=N3)NCCC4=CN=CN4)Br
Outline: as §1

[10] = compound: C1CN(CCC1(CC2=CC=C(C=C2)Cl)N)C3=NC=NC4=C3C=CN4
Outline: as §1

[11] = compound: C1COCCN1CCN2C3=CC=CC=C3N=C2NC(=O)C4=CC(=CC=C4)[N+](=O)[O-] [IRAK-1-4 Inhibitor I]
Outline: as §1

[12] = compound: C=CC(=O)N1CCC[C@@H](n2nc(-c3ccc(Oc4ccccc4)cc3)c3c(N)ncnc32)C1 [ibrutinib]
Outline: as §1

[13] = compound: CC(=O)c1cnc2ccc(-c3cc(Cl)c(O)c(Cl)c3)nc2c1N[C@H]1CC[C@H](CN(C)C)CC1
Outline: as §1

[14] = compound: CC(C)(C)Cn1c(N)nc2ccc(-c3[nH]c(C(C)(C)C)nc3-c3ccc(F)cc3)nc21 [ralimetinib]
Outline: as §1

[15] = compound: CC(C)(O)CC(=O)NCCn1ccc2ncnc(Nc3ccc(Oc4cccc(C(F)(F)F)c4)c(Cl)c3)c21
Outline: as §1

[16] = compound: CC(C)C1=C2N=C(C=C(N2N=C1)NCC3=CC=CC=C3)NCCCCCCN
Outline: as §1

[17] = compound: CC(C)C[C@@H](C=O)NC(=O)[C@H](CC(C)C)NC(=O)[C@H](CC(C)C)NC(=O)OCc1ccccc1
Outline: as §1

[18] = compound: CC(C)N(C[C@H]1O[C@@H](n2cnc3c(N)ncnc32)[C@H](O)[C@@H]1O)[C@H]1C[C@@H](CCc2nc3cc(C(C)(C)C)ccc3[nH]2)C1 [pinometostat]
Outline: as §1

[19] = compound: CC1=C(C(CC(=O)N1)C2=CC=C(C=C2)C(F)(F)F)C(=O)NC3=C(C=C4C(=C3)C=NN4)F
Outline: as §1

[20] = compound: CC1=C(C2=C(C=C1)C(=O)C3=CC=CC=C3N2CCCN)C
Outline: as §1

Measured: log2 fold change

RPL24 (UniProt P83731)
inactive: [1] -0.221 | [2] -0.182 | [3] -0.661 | [4] 0.023 | [5] -0.203 | [6] -0.039 | [7] -0.062 | [8] 0.032 | [9] 0.071 | [10] -0.172 | [11] -0.176 | [12] 0.005 | [13] 0.188 | [14] 0.167 | [15] 0.004 | [16] -0.019 | [17] 0.147 | [18] 0.341 | [19] 0.111 | [20] -0.544

RPS13 (UniProt P62277)
active: [20] -0.759
inactive: [1] -0.156 | [2] -0.17 | [3] -0.544 | [4] 0.088 | [5] -0.11 | [6] -0.053 | [7] -0.088 | [8] -0.015 | [9] 0.101 | [10] -0.184 | [11] -0.096 | [12] 0.035 | [13] 0.103 | [14] 0.13 | [15] 0.071 | [16] -0.031 | [17] 0.137 | [18] 0.345

RPS6KA2 isoform 2 (UniProt Q15349)
inactive: [1] 0.008 | [2] 0.092 | [3] -0.068 | [4] 0.075 | [5] 0.07 | [6] 0.06 | [7] -0.132 | [9] -0.058 | [10] -0.004 | [11] 0.001 | [12] -0.066 | [13] -0.178 | [15] -0.082 | [16] -0.082 | [17] 0.07 | [18] 0.01 | [20] 0.006
active: [8] -0.473 | [14] -0.492

RPP30 isoform 2 (UniProt P78346)
inactive: [1] -0.002 | [2] -0.085 | [3] -0.019 | [4] 0.044 | [5] 0.001 | [6] -0.007 | [7] -0.037 | [8] -0.039 | [9] 0.121 | [10] 0.047 | [11] -0.022 | [12] 0.052 | [13] -0.033 | [14] 0.006 | [15] 0.039 | [16] 0.035 | [17] 0.015 | [18] 0.047 | [19] 0.027 | [20] -0.107

RP9 (UniProt Q8TA86)
inactive: [1] -0.081 | [2] -0.067 | [3] -0.189 | [4] 0.162 | [5] 0.152 | [6] -0.045 | [7] -0.13 | [8] -0.102 | [9] -0.086 | [10] -0.048 | [11] -0.075 | [12] 0.087 | [13] 0.039 | [14] 0.076 | [15] 0.073 | [16] -0.212 | [17] 0.161 | [18] 0.162 | [19] -0.011 | [20] -0.068

RPA3 (UniProt P35244)
inactive: [1] -0.007 | [2] 0.156 | [3] 0.084 | [4] 0.008 | [5] -0.058 | [6] -0.007 | [7] 0.115 | [8] 0.032 | [9] -0.128 | [10] -0.027 | [11] 0.02 | [12] 0.029 | [13] 0.016 | [14] 0.038 | [15] -0.097 | [16] -0.025 | [17] -0.137 | [18] 0.016 | [20] 0.129

Reprinted at random: 2 records from the list.
RPP30 isoform 2 (UniProt P78346)
inactive: [1] -0.002 | [2] -0.085 | [3] -0.019 | [4] 0.044 | [5] 0.001 | [6] -0.007 | [7] -0.037 | [8] -0.039 | [9] 0.121 | [10] 0.047 | [11] -0.022 | [12] 0.052 | [13] -0.033 | [14] 0.006 | [15] 0.039 | [16] 0.035 | [17] 0.015 | [18] 0.047 | [19] 0.027 | [20] -0.107

RPS13 (UniProt P62277)
active: [20] -0.759
inactive: [1] -0.156 | [2] -0.17 | [3] -0.544 | [4] 0.088 | [5] -0.11 | [6] -0.053 | [7] -0.088 | [8] -0.015 | [9] 0.101 | [10] -0.184 | [11] -0.096 | [12] 0.035 | [13] 0.103 | [14] 0.13 | [15] 0.071 | [16] -0.031 | [17] 0.137 | [18] 0.345

Additional results follow.

RPS15 (UniProt P62841)
inactive: [1] -0.173 | [2] -0.259 | [3] -0.208 | [4] 0.016 | [5] 0.028 | [6] -0.092 | [7] 0.036 | [8] -0.131 | [9] 0.188 | [10] -0.138 | [11] -0.114 | [12] 0.11 | [13] -0.042 | [14] 0.076 | [15] 0.103 | [16] -0.043 | [17] 0.11 | [18] 0.088
active: [20] -0.574

RPS2 (UniProt P15880)
active: [20] -0.682
inactive: [1] -0.199 | [2] -0.138 | [3] -0.323 | [4] 0.047 | [5] -0.1 | [6] -0.039 | [7] -0.064 | [8] -0.041 | [9] 0.086 | [10] -0.162 | [11] -0.101 | [12] 0.042 | [13] 0.085 | [14] 0.055 | [15] 0.019 | [16] -0.004 | [17] 0.061 | [18] 0.222

RPL9 (UniProt P32969)
inactive: [1] -0.416 | [2] -0.313 | [3] -0.78 | [4] 0.059 | [5] -0.162 | [6] -0.033 | [7] -0.06 | [8] 0.041 | [9] 0.054 | [10] -0.381 | [11] -0.32 | [12] 0.104 | [13] 0.241 | [14] 0.268 | [15] 0 | [16] -0.064 | [17] 0.06 | [18] 0.462 | [19] 0.116 | [20] -0.686

RPS4X (UniProt P62701)
active: [20] -0.679
inactive: [1] -0.177 | [2] -0.092 | [3] -0.37 | [4] 0.054 | [5] -0.042 | [6] -0.033 | [7] -0.043 | [8] 0.043 | [9] 0.076 | [10] -0.221 | [11] -0.129 | [12] 0.025 | [13] 0.126 | [14] 0.106 | [15] 0.003 | [16] -0.025 | [17] 0.074 | [18] 0.273

RPL26 (UniProt P61254)
inactive: [1] -0.286 | [2] -0.107 | [3] -0.765 | [4] 0.138 | [5] -0.293 | [6] -0.048 | [7] -0.287 | [8] 0.011 | [9] -0.156 | [10] -0.285 | [11] -0.23 | [12] 0.074 | [13] 0.284 | [14] 0.335 | [15] 0.006 | [16] 0.027 | [17] 1.12 | [18] 0.661 | [19] 0.075 | [20] -0.717

RPS21 (UniProt P63220)
inactive: [1] -0.045 | [2] -0.062 | [3] -0.071 | [4] 0.017 | [5] -0.056 | [6] 0.079 | [7] -0.066 | [8] -0.027 | [9] 0.033 | [10] 0.017 | [11] -0.004 | [12] -0.035 | [13] 0.055 | [14] -0.014 | [15] 0.069 | [16] 0.056 | [17] 0.075 | [18] -0.022 | [20] -0.02

RPS3A (UniProt P61247)
inactive: [1] -0.178 | [2] -0.041 | [3] -0.232 | [4] 0.062 | [5] -0.039 | [6] -0.035 | [7] -0.028 | [8] 0 | [9] 0.088 | [10] -0.162 | [11] -0.133 | [12] 0.028 | [13] 0.072 | [14] 0.053 | [15] 0.069 | [16] -0.071 | [17] 0.059 | [18] 0.108
active: [20] -0.565

RPL18A (UniProt Q02543)
inactive: [1] -0.467 | [2] -0.34 | [3] -1.05 | [4] 0.111 | [5] -0.201 | [6] -0.057 | [7] -0.148 | [8] 0.042 | [9] 0.128 | [10] -0.346 | [11] -0.275 | [12] 0.055 | [13] 0.355 | [14] 0.232 | [15] 0.046 | [16] 0.003 | [17] 0.181 | [18] 0.606 | [19] 0.068 | [20] -0.856

RPS19 (UniProt P39019)
inactive: [1] -0.141 | [2] -0.102 | [3] -0.274 | [4] 0.057 | [5] -0.082 | [6] -0.044 | [7] -0.026 | [8] -0.015 | [9] 0.094 | [10] -0.145 | [11] -0.085 | [12] 0.052 | [13] 0.05 | [14] 0.064 | [15] 0.03 | [16] -0.025 | [17] 0.039 | [18] 0.084
active: [20] -0.523

ROR2 (UniProt Q01974)
active: [13] -0.72
inactive: [1] -0.045 | [2] 0.058 | [3] 0.01 | [4] 0.023 | [5] 0.02 | [6] 0.011 | [7] 0.076 | [8] -0.024 | [9] -0.041 | [10] -0.001 | [11] -0.003 | [12] -0.014 | [14] 0.045 | [15] -0.058 | [16] -0.018 | [17] -0.001 | [18] 0.045 | [20] 0.115
